Measured values reported in PubChem BioAssay (NCATS).
Inconclusive results, whose numbers are uncertain, are shown with a selection of clear calls. Potencies beside an inconclusive call are fits to weak or partial responses and may not hold up. The source made the active and inactive calls. The call rests on the fitted dose curve; in most records, active means well fitted curve in the direction sought with a large enough effect; inconclusive means small, poorly fitted or top-dose-only effect, or another doubt; inactive means no such curve, though single readings can be large; an effect the other way counts as inactive or inconclusive.

Columns and labels:
[1] = Quantitative highthroughput screen to assess conditional lethalithy of NOMO1 cells grown in RPMI1640 with untreated serum (RPMI+s) (AID 1963876); details: NOMO1 AML cells in RPMI+serum, CellTiter-Glo viability, 48 h; viability: at 45.8 µM (top of the series); further: nearly all actives have a fitted effect of over 35% in size
Outline: (§1)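 Each medium arm—HPLM with 10% dialyzed FBS, or RPMI1640 with 5 mM glucose and 10% untreated or dialyzed FBS—was screened against an 11-point, 3-fold compound titration for 48 h at 37 °C, with CellTiter-Glo luminescence as endpoint.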

[2] = Quantitative highthroughput screen to assess conditional lethalithy of NOMO1 cells grown in RPMI1640 with dialyzed fetal bovine serum (RPMI+ds) (AID 1963877); details: NOMO1 in RPMI+dialyzed FBS viability, ATP luminescence, 48 h; series mostly up to 45.8 µM; further: nearly all actives have a fitted effect of over 30% in size
Outline: as §1

[3] = Quantitative highthroughput screen to assess conditional lethalithy of NOMO1 cells grown in Human Plasma-Like Medium with dialyzed fetal bovine serum (HPLM+ds) (AID 1963878); details: NOMO1 AML cells in HPLM+ds, CellTiter-Glo viability, 48 h; viability: at 45.8 µM (top of the series); further: nearly all actives have a fitted effect of over 35% in size
Outline: as §1

[4] = Quantitative highthroughput screen to assess conditional lethalithy of SEM cells grown in RPMI1640 with dialyzed fetal bovine serum (RPMI+ds) (AID 1963884); details: SEM B-ALL cells, RPMI+dialyzed FBS, CellTiter-Glo viability, 48 h; viability: at 45.8 µM (top of the series); further: nearly all actives have a fitted effect of over 35% in size
Outline: as §1

[5] = Quantitative highthroughput screen to assess conditional lethalithy of P12 Ichikawa cells grown in RPMI1640 with dialyzed fetal bovine serum (RPMI+ds) (AID 1963880); details: ATP luminescence, 48 h; Potency: P12-Ichikawa viability; series mostly up to 45.8 µM; further: nearly all actives have a fitted effect of over 35% in size
Outline: as §1

[6] = Quantitative highthroughput screen to assess conditional lethalithy of P12 Ichikawa cells grown in RPMI1640 with untreated serum (RPMI+s) (AID 1963881); details: ATP luminescence, 48 h; Potency: viability; series mostly up to 45.8 µM; further: nearly all actives have a fitted effect of over 35% in size
Outline: as §1

[7] = Quantitative highthroughput screen to assess conditional lethalithy of SEM cells grown in Human Plasma-Like Medium with dialyzed fetal bovine serum (HPLM+ds) (AID 1963882); details: SEM B-ALL cells in HPLM+ds, CellTiter-Glo viability, 48 h; series mostly up to 45.8 µM; further: nearly all actives have a fitted effect of over 35% in size
Outline: as §1

[8] = Quantitative highthroughput screen to assess conditional lethalithy of SEM cells grown in RPMI1640 with unreated serum (RPMI+s) (AID 1963883); details: SEM B-ALL cells, CellTiter-Glo viability, 48 h; viability: at 45.8 µM (top of the series); further: nearly all actives have a fitted effect of over 35% in size
Outline: as §1

[9] = Quantitative highthroughput screen to assess conditional lethalithy of P12 Ichikawa cells grown in Human Plasma-Like Medium with dialyzed fetal bovine serum (HPLM+ds) (AID 1963879); details: ATP luminescence, 48 h; Potency: viability; series mostly up to 45.8 µM; further: nearly all actives have a fitted effect of over 35% in size
Outline: as §1

[10] = Cellular viability qHTS for adrenocortical cancer (ACC) cell line NCI-H295R (AID 1963990); details: CellTiter-Glo ATP luminescence, 48 h; series mostly up to 46.1 µM; further: nearly all actives have a fitted effect of over 60% in size
Outline: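 Viability of NCI-H295R after 48 h of treatment (final up to 46 uM) measured through cellular ATP luminescence.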

Measured: Potency
Potency means the concentration at half of the fitted maximal effect.

CCCCCN=C(N)NN=Cc1c[nH]c2ccc(OC)cc12
inconclusive: [1] 18.7 µM [cytotoxic, partial curve] | [2] 14.8 µM [cytotoxic, partial curve] | [3] 11.8 µM [cytotoxic, partial curve] | [4] 9.35 µM [cytotoxic, partial curve]

CC1(C)C(N(O)C(=O)Nc2ccc(Cl)cc2)N(c2ccc(Cl)cc2)C(=O)N1CC(=O)NN=CC=Cc1ccc([N+](=O)[O-])o1 (stereo unspecified)
inconclusive: [2] 37.2 µM [cytotoxic, single point] | [5] 23.5 µM [cytotoxic, single point] | [6] 33.2 µM [cytotoxic, single point] | [7] 5.26 µM [cytotoxic, partial curve, poor fit] | [8] 4.18 µM [cytotoxic, partial curve, poor fit] | [4] 3.72 µM [cytotoxic, partial curve, poor fit]
inactive: [1]

C[C@@H]1[C@H](C)CC[C@]2(C(=O)O)CC[C@]3(C)C(=CC[C@@H]4[C@@]5(C)CC[C@H](O)C(C)(C)[C@H]5CC[C@]43C)[C@@H]12
inconclusive: [8] 76.2 µM [cytotoxic, single point]
inactive: [1] | [2] | [9] | [5] | [6]

O=C1Nc2ccc(I)cc2C1=Cc1cc(Br)c(O)c(Br)c1
inactive: [1] | [2] | [9] | [6]
active: [8] 16.6 µM

CC(C)N(CCCNC(=O)Nc1ccc(C(C)(C)C)cc1)C[C@H]1O[C@@H](n2cc(Br)c3c(N)ncnc32)[C@H](O)[C@H]1O
inconclusive: [1] 26.4 µM [cytotoxic, single point] | [2] 23.5 µM [cytotoxic, partial curve] | [9] 29.6 µM [cytotoxic, single point] | [5] 20.9 µM [cytotoxic, partial curve] | [7] 20.9 µM [cytotoxic, partial curve] | [4] 26.4 µM [cytotoxic, single point]
active: [8] 20.9 µM

Nc1nc(F)nc2c1ncn2[C@@H]1O[C@H](COP(=O)(O)O)[C@@H](O)[C@H]1O
inconclusive: [1] 26.4 µM [cytotoxic, single point] | [2] 20.9 µM [cytotoxic, partial curve] | [9] 14.8 µM [cytotoxic, partial curve] | [6] 18.7 µM [cytotoxic, partial curve]
active: [7] 1.48 µM | [8] 8.33 µM | [4] 1.87 µM

O=C(C1CCCCC1)N1CC(=O)N2CCc3ccccc3C2C1 (stereo unspecified)
inconclusive: [2] 1.87 µM [cytotoxic, full curve, poor fit] | [9] 0.209 µM [cytotoxic, full curve] | [5] 0.935 µM [cytotoxic, full curve] | [6] 0.469 µM [cytotoxic, full curve] | [7] 0.743 µM [cytotoxic, full curve, poor fit] | [4] 0.662 µM [cytotoxic, full curve]
inactive: [1]

CCOc1cc2ncc(C#N)c(Nc3ccc(OCc4ccccn4)c(Cl)c3)c2cc1NC(=O)C=CCN(C)C
active: [1] 0.526 µM | [2] 0.935 µM | [5] 1.05 µM | [7] 0.332 µM

CC(C=CC1=C(C)CCCC1(C)C)=CC=CC(C)=CC(=O)Nc1ccc(O)cc1
active: [1] 30.3 µM | [2] 17.1 µM | [3] 15.2 µM | [4] 3.03 µM

Random excerpt: 2 compounds from above, in no set order.
C[C@@H]1[C@H](C)CC[C@]2(C(=O)O)CC[C@]3(C)C(=CC[C@@H]4[C@@]5(C)CC[C@H](O)C(C)(C)[C@H]5CC[C@]43C)[C@@H]12
inconclusive: [8] 76.2 µM [cytotoxic, single point]
inactive: [1] | [2] | [9] | [5] | [6]

O=C(C1CCCCC1)N1CC(=O)N2CCc3ccccc3C2C1 (stereo unspecified)
inconclusive: [2] 1.87 µM [cytotoxic, full curve, poor fit] | [9] 0.209 µM [cytotoxic, full curve] | [5] 0.935 µM [cytotoxic, full curve] | [6] 0.469 µM [cytotoxic, full curve] | [7] 0.743 µM [cytotoxic, full curve, poor fit] | [4] 0.662 µM [cytotoxic, full curve]
inactive: [1]

Next part:

CC(C)N1[N]C(=C2C=c3cc(O)ccc3=N2)c2c(N)ncnc21
active: [2] 7.43 µM | [6] 4.18 µM | [8] 2.96 µM
inconclusive: [1] 13.2 µM [cytotoxic, partial curve] | [9] 5.26 µM [cytotoxic, partial curve] | [5] 2.64 µM [cytotoxic, full curve]

CC(C)(C)[N+]([O-])=Cc1ccc(S(=O)(=O)O)cc1S(=O)(=O)O
inactive: [1] | [2] | [5] | [7]

CC(=O)[C@]1(O)Cc2c(O)c3c(c(O)c2[C@@H](O[C@H]2C[C@H](N)[C@@H](O)[C@H](C)O2)C1)C(=O)c1ccccc1C3=O
active: [1] 2.96 µM | [2] 3.72 µM | [6] 1.48 µM | [4] 1.05 µM
inconclusive: [9] 0.118 µM [cytotoxic, full curve, poor fit]

C=C1C(=O)[C@@]23C(CC[C@@H]1[C@H]2O)[C@@]12CO[C@]3(O)[C@@H](O)[C@@H]1C(C)(C)CC[C@@H]2O (stereo partly specified)
inconclusive: [4] 4.69 µM [cytotoxic, full curve, poor fit]
active: [1] 20.9 µM | [2] 23.5 µM | [6] 7.43 µM | [7] 8.33 µM

COc1cc(Nc2ncc3c(n2)-c2ccc(Cl)cc2C(c2c(F)cccc2OC)=NC3)ccc1C(=O)O
active: [1] 0.0833 µM | [2] 0.0662 µM | [9] 0.0743 µM
inconclusive: [7] 0.0833 µM [cytotoxic, full curve] | [8] 0.0833 µM [cytotoxic, full curve] | [4] 0.0662 µM [cytotoxic, full curve]

CO[C@H]1O[C@@H]2O[C@@]3(C)CC[C@@H]4[C@@H](C)CC[C@@H]([C@H]1C)[C@@]24OO3
inconclusive: [1] 14.8 µM [cytotoxic, partial curve] | [2] 11.8 µM [cytotoxic, partial curve] | [3] 10.5 µM [cytotoxic, full curve] | [8] 16.6 µM [cytotoxic, partial curve, poor fit] | [4] 18.7 µM [cytotoxic, partial curve, poor fit]

N#CC(=C(N)Sc1ccc(N)cc1)c1ccccc1C(F)(F)F
active: [6] 2.96 µM
inconclusive: [1] 2.64 µM [cytotoxic, full curve] | [2] 0.935 µM [cytotoxic, full curve] | [9] 4.69 µM [cytotoxic, partial curve, poor fit] | [7] 4.18 µM [cytotoxic, full curve, poor fit] | [8] 13.2 µM [cytotoxic, partial curve, poor fit] | [4] 10.5 µM [cytotoxic, partial curve, poor fit]
inactive: [5]

Cn1cnc2c1c(=O)[nH]c(=O)n2C
inconclusive: [1] 33.2 µM [cytotoxic, single point] | [2] 29.6 µM [cytotoxic, single point] | [9] 33.2 µM [cytotoxic, single point] | [5] 23.5 µM [cytotoxic, partial curve] | [6] 23.5 µM [cytotoxic, partial curve] | [7] 26.4 µM [cytotoxic, single point] | [10] 5.17 µM [rising, partial curve, poor fit]

C#C[C@]1(O)CC[C@@H]2[C@@H]3CCc4cc(O)ccc4[C@H]3CC[C@@]21C
inconclusive: [2] 18.7 µM [cytotoxic, partial curve] | [9] 18.7 µM [cytotoxic, partial curve] | [6] 18.7 µM [cytotoxic, partial curve] | [8] 11.8 µM [cytotoxic, partial curve]
inactive: [1]

O=C(O)C[C@H](O)C[C@H](O)C=Cc1c(C2CC2)nc2ccccc2c1-c1ccc(F)cc1
active: [5] 4.18 µM
inconclusive: [1] 23.5 µM [cytotoxic, partial curve] | [2] 18.7 µM [cytotoxic, partial curve] | [9] 6.62 µM [cytotoxic, partial curve] | [7] 23.5 µM [cytotoxic, partial curve] | [4] 18.7 µM [cytotoxic, partial curve]

COc1c(C)c2c(c(O)c1CC=C(C)CCC(=O)O)C(=O)OC2
inconclusive: [1] 11.8 µM [cytotoxic, partial curve] | [2] 13.2 µM [cytotoxic, partial curve] | [9] 9.35 µM [cytotoxic, full curve] | [5] 5.9 µM [cytotoxic, full curve] | [6] 5.26 µM [cytotoxic, full curve] | [7] 13.2 µM [cytotoxic, partial curve] | [8] 8.33 µM [cytotoxic, partial curve] | [4] 13.2 µM [cytotoxic, partial curve]

CC1(C)O[C@@H]2C[C@@H]3[C@H]4C[C@@H](F)C5=CC(=O)C=C[C@]5(C)[C@@]4(F)[C@@H](O)C[C@]3(C)[C@]2(C(=O)CO)O1
inconclusive: [9] 0.0187 µM [cytotoxic, full curve] | [6] 0.0187 µM [cytotoxic, full curve] | [8] 0.0166 µM [cytotoxic, full curve]
inactive: [1] | [2]
